# Among all 410,000 compounds or so, about 18,000 (4.4%) were called active. Inconclusive results, whose numbers are uncertain, are shown with a selection of clear calls. Cut-off read from the data, not from the text of the source: active = activity change below about -60%; inconclusive = no clear call, values can overlap the other calls; inactive = above about -39%.
# Assay: qHTS Assay for inhibitors of the human cytomegalovirus (HCMV)
# Conditions: HFF cells, HCMV-luciferase reporter, 72 h; at 57.5 µM; active compounds read low
# Procedure, shortened: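 Screen run at 2 compound doses on HFFs infected with reporter HCMV, MOI 1 PFU/cell. Luciferase activity from cell lysates at 72 h post infection gave inhibition relative to buffer-only and Salinomycin wells.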
# % is set by controls: 0 for no effect and ±100 for the full control effect.
row,SMILES,"activity change, negative = inhibition"
1,COc1cc2ccccc2ccc1=NO,active: -67.9%
2,Nc1nonc1-n1nnc(C(=O)N/N=C/c2ccc(Br)cc2)c1CSC1=NCCS1,inconclusive: -48.3%
3,CCOC(=O)C1=C(C)NC(C)=C(C(=O)OC)C1c1cccc([N+](=O)[O-])c1 (stereo not drawn),inconclusive: -41%
4,CCOC(=O)c1oc2ccccc2c1NC(=O)c1ccco1,inconclusive: -46.8%
5,Cc1nnc(NC(=O)CSc2nccn2Cc2ccc(Cl)cc2)s1,inactive: 2.02%
6,Cc1cccc(COCC(Cc2ccccc2)N2CCN(C(=O)c3ccc(Cl)c(Cl)c3)CCC2=O)c1 (stereo not drawn),inactive: 31%
7,Nc1ncnc(N)c1NC(=O)c1ccccc1,active: -101%
8,CCN(CC)S(=O)(=O)c1cccc(C(=O)Nc2sc3c(c2C#N)CCC(C)C3)c1 (stereo not drawn),inconclusive: -44.2%
9,COc1ccc(N2CCN(C(=O)NCc3ccc(OC)c(Cl)c3)CC2)cc1,inconclusive: -40.9%
10,Cc1ccc(C(=O)CSc2nc3cccnc3n2C)cc1,inconclusive: -55.3%
11,COc1ccc(NC(=O)COC(=O)CN2C(=O)c3ccccc3C2=O)cc1,inactive: -15.2%
12,Cc1cccc(CN2C(=O)[C@H]3Cc4c([nH]c5ccccc45)C(C)(C)N3C2=O)c1,inactive: 37.1%
13,C/C=C\C=C/C(=O)Nc1cccc(C2=NOC3(C2)C[C@@H](C(N)=O)N(C(=O)COc2ccc(Cl)cc2)C3)c1 (stereo partly drawn),inconclusive: -50.1%
14,CCc1ccc(Cn2nnc(C(=O)Nc3ccc(OC)cc3OC)c2N)cc1,inactive: -7.27%
15,COc1ccc(CCN2C(=O)CC(Cc3ccc(C)cc3)C2=O)cc1OC (stereo not drawn),active: -63.9%
16,NNC(=O)CC12CC3CC(C1)CC(n1ncnn1)(C3)C2,inconclusive: -46.8%
17,CC(C)(C)C(=O)NNC(=O)C1CC1(c1ccccc1)c1ccccc1 (stereo not drawn),inactive: -6.67%
18,CCOc1cc(C(=O)OCC(=O)N(C)c2ccccc2)cc(OCC)c1OCC,inconclusive: -42.2%
19,CCN(CC)CCn1c(=N)n(CCO)c2ccccc21,inactive: 16.9%
20,COc1cccc(CNc2nc(NCC3CC3)nc3ccsc23)c1OC,inconclusive: -51.2%
21,CCc1sc(C(=O)Nc2ccccc2N2CCOCC2)cc1C,active: -75.4%
22,CCOC(=O)c1cc2sccc2n1CC(=O)N1c2ccccc2CC1C (stereo not drawn),inconclusive: -46%

# 5 entries already listed, sorted by length of the SMILES, high to low.
row,SMILES,"activity change, negative = inhibition"
8,CCN(CC)S(=O)(=O)c1cccc(C(=O)Nc2sc3c(c2C#N)CCC(C)C3)c1 (stereo not drawn),inconclusive: -44.2%
9,COc1ccc(N2CCN(C(=O)NCc3ccc(OC)c(Cl)c3)CC2)cc1,inconclusive: -40.9%
22,CCOC(=O)c1cc2sccc2n1CC(=O)N1c2ccccc2CC1C (stereo not drawn),inconclusive: -46%
16,NNC(=O)CC12CC3CC(C1)CC(n1ncnn1)(C3)C2,inconclusive: -46.8%
1,COc1cc2ccccc2ccc1=NO,active: -67.9%

# (continued)

row,SMILES,"activity change, negative = inhibition"
1,C=CCNc1ccc(N2C(=O)CCCC2=O)cc1[N+](=O)[O-],inconclusive: -40.9%
2,C/C(=N\NC(=O)c1ccc(Cl)cc1)c1ccccn1,active: -101%
3,N#Cc1ccc(-c2cn(-c3ccccc3)c3[n+]2CCCS3)cc1,inactive: -4.85%
4,NS(=O)(=O)c1ccc(NC(=S)N2CCN(c3cccc(Cl)c3)CC2)cc1,inconclusive: -46.2%
5,COc1cccc(CNc2cc(C)nc3nc(-c4ccc(C)cc4)nn23)c1,inactive: 47.8%
6,COc1ccccc1CN(C)C(=O)c1ccc(S(=O)(=O)NCc2ccco2)cc1,inactive: -4.77%
7,Cc1nc2ccn(Cc3ccco3)c(=O)c2cc1C(=O)NCc1ccccc1,inconclusive: -49.9%
8,Cc1cc2cc(CNC(=S)NCc3ccccc3)ccc2n1C,inconclusive: -43.6%
9,CC1=Nc2cc(C(=O)NCCCN3CCOCC3)ccc2Sc2c(C)ccc(C)c21,active: -68.5%
10,COc1ccccc1CNS(=O)(=O)c1cnc(N)nc1,inconclusive: -43.6%
11,Cc1ccc(S(=O)(=O)NC2CCCCC2)c(C)c1NS(C)(=O)=O,inactive: 17.1%
12,CC(=O)Nc1ccccc1NC(=O)C/C(C)=N/NC(=O)c1ccccn1,inactive: 40.3%
13,O=C(Nc1cccnc1)c1cc(-c2ccccc2O)on1,inconclusive: -42.5%
14,Cc1ccc(S(=O)(=O)Nc2nc3n(n2)C(c2ccc(F)cc2)C=C(c2ccccc2)N3)cc1 (stereo not drawn),inconclusive: -55.2%
15,COc1ccc([C@H]2C[C@@H](n3cc(COC(=O)c4ccccc4)nn3)[C@H](O)CN2C(=O)C2CCCCC2)cc1,inconclusive: -56.7%
16,O=C(Nc1ccc(C#Cc2ccccc2)cc1)C1CC1,active: -64.1%
17,COc1ccc(NC(=O)c2cc(C3CCCCN3S(=O)(=O)c3ccc(C#N)cc3)on2)c(C)c1 (stereo not drawn),inconclusive: -54.5%
18,O=C(NN=Cc1ccc(OC(F)F)cc1)c1ccc(NS(=O)(=O)c2cccs2)cc1,inactive: 18.2%
19,COc1cc(CNC(C)(C)CO)cc(Br)c1OCc1ccc(Cl)cc1,inconclusive: -55.1%
20,O=C(c1cccn1-c1nnc(N2CCCC2)s1)N1CCN(c2ccc(Cl)cc2)CC1,inactive: 0%
21,CCN(CC)C(=O)CSc1nc(N)c(C(=O)Nc2ccc(OC)cc2)s1,inconclusive: -48.8%
22,COc1ccc(C2/C(=C(/O)c3ccc(F)cc3)C(=O)C(=O)N2CCCN(C)C)cc1 (stereo not drawn),active: -82.6%

row,SMILES,"activity change, negative = inhibition"
1,CC(=O)N[C@@H](Cc1c[nH]c2ccccc12)C(=O)OCC(=O)Nc1ccc2c(c1)OCO2,inconclusive: -41.3%
2,Cc1ccc(C)c(NC(=O)c2ccc(CN3CC(=O)N4CCCCC4C3=O)cc2)c1 (stereo not drawn),inconclusive: -47%
3,CC(OC(=O)[C@H](C)NC(=O)c1ccccc1Cl)C(=O)NCc1ccc2c(c1)OCO2 (stereo partly drawn),inconclusive: -40.6%
4,NC(=O)COC(=O)c1sc2cc(F)ccc2c1Cl,inconclusive: -43.8%
5,CNC(=O)c1cccc2nc3ccccc3nc12,inconclusive: -46.6%
6,CN1CCNC(=O)C1CC(=O)NCCc1ccccc1F (stereo not drawn),inactive: -16.5%
7,COc1ccc(NS(=O)(=O)c2ccc3[nH]c4c(c3c2)CCCC4)cc1OC,inconclusive: -43.3%
8,O=C(NCC1COc2ccccc2O1)c1ccc(NC(=O)c2ccco2)cc1 (stereo not drawn),inconclusive: -55%
9,CCCCOc1cccc(C(=O)N(Cc2ccc(C)o2)c2ccccn2)c1,inactive: -39.5%
10,O=C(CN(C(=O)c1csnn1)c1cccc2c1CCCC2)NCc1ccccc1,inactive: -29.6%
11,Cc1cc(N2CCN(Cc3cn(C)nc3-c3cccc(Cl)c3)CC2)cc(C)n1,inconclusive: -54.6%
12,COc1ccc(-c2coc3c(C(=O)NCc4ccccc4)cccc23)c(C)c1,inconclusive: -56.1%
13,CC1CCN(C(=O)CCC(=O)Nc2ccc([N+](=O)[O-])cc2)CC1,inactive: -3.81%
14,O=C(COC(=O)CCc1ccc(S(=O)(=O)N2CCOCC2)cc1)NC(=O)NC1CCCCC1,inactive: -24.2%
15,O=C(CSc1cccc2cccnc12)N1CCCC1,inconclusive: -46.4%
16,O=C(COc1ccc(Cl)cc1Cl)NCCCNC(=O)c1cnccn1,inconclusive: -40.1%
17,Cc1onc(-c2ccccc2Cl)c1C(=O)Nc1ccccc1O,inconclusive: -48.1%
18,COc1ccccc1NC(=O)Cn1nc(C(F)(F)F)c2c1CCCC2,inconclusive: -41.2%
19,COCCCNC(=S)N1CCN(c2ccc([N+](=O)[O-])cc2)CC1,inconclusive: -44.2%
20,COc1cccc(C(C2=C(O)CC(C)(C)CC2=O)C2C(=O)CC(C)(C)CC2=O)c1 (stereo not drawn),active: -65.3%
21,O=c1[nH]c(=S)[nH]c(O)c1N=Nc1ccc(OC(F)F)cc1,inconclusive: -53.1%
22,O[C@@H](c1cc(C(F)(F)F)nc2c(C(F)(F)F)cccc12)[C@H]1CCCCN1,inactive: 24.1%

row,SMILES,"activity change, negative = inhibition"
1,O=C(c1ccc(S(=O)(=O)Cc2cc(F)ccc2F)c([N+](=O)[O-])c1)N1CCCC1,active: -75%
2,CCC1CCCCN1C(=O)CSc1nc2c([nH]c3ccccc32)c(=O)n1-c1ccc(OC)cc1 (stereo not drawn),inactive: -13%
3,CC(=O)n1c(Cl)c(NC(=O)CCl)c2ccccc21,active: -98.3%
4,COc1ccc(S(=O)(=O)N2CCN(C(=O)NCc3ccc(C)cc3)CC2)cc1,inconclusive: -41.9%
5,CCCOc1ccc(-c2csc3ncn(Cc4ccc(C(=O)O)cc4)c(=O)c23)cc1,inconclusive: -55.9%
6,CCOC(=O)c1c(C)nn(-c2ccc(NC(=O)/C=C/C(=O)O)cc2)c1C,inconclusive: -53%
7,CC(C)NC(=O)CCC(=O)N1Cc2ccccc2Oc2ncccc21,inactive: 0.137%
8,Cc1ccc(-c2nc3ccccc3c(=O)n2-c2ccc(Br)cn2)cc1,inconclusive: -40%
9,Cc1noc(C)c1S(=O)(=O)N1CCC(C(=O)N2CCN(c3cccc(C(F)(F)F)c3)CC2)CC1,inconclusive: -54.3%
10,N#Cc1cn(C2OC(CO)C(O)C2O)c2ncnc(N)c12 (stereo not drawn),active: -99.9%
11,Cc1ccc(Cn2c(C(C)NC(=O)c3ccccc3)nc3ccccc32)cc1 (stereo not drawn),inconclusive: -53.8%
12,O=C(Nc1nnc(-c2ccc(Cl)cc2)o1)NC1CCCCC1,inconclusive: -47.3%
13,Cc1cc(C)c2c(-n3cccc3)c(C(=O)NNS(=O)(=O)c3ccc(Cl)cc3)sc2n1,inactive: 21.1%
14,Cn1c(-c2cccc(C(F)(F)F)c2)cc2cnc(Nc3ccc(F)cc3)cc21,inactive: -5.95%
15,O=C(NCCCN1CCN(c2ccccc2)CC1)c1ccc2nc(Cc3ccccc3)oc2c1,inconclusive: -45%
16,O=C(N/N=C/c1ccc(F)cc1)c1sccc1OCc1ccc(F)cc1,inconclusive: -58.1%
17,C=CCc1ccc(OCCOCCOc2ccc(C)cc2[N+](=O)[O-])c(OC)c1,inactive: 11.1%
18,O=C1c2ccc3c4c(ccc(c24)C(=O)N1c1cccc(O)c1)CC3,inconclusive: -54%
19,COC(=O)C(C)N(C#N)c1nc(C)nc(C)n1 (stereo not drawn),active: -110%
20,CN1CCN(c2ccc(NC(=S)NC(=O)/C=C/c3ccco3)cc2)CC1,inactive: 20.5%
21,COc1ccc(-c2[nH]ncc2CN(C)Cc2cccnc2)c(OC)c1,inconclusive: -53.2%
22,NS(=O)(=O)c1ccc(CCNC(=O)CN2CCN(c3ccccc3F)CC2)cc1,inconclusive: -44.9%
